No constants are given. Whether binding was seen depends on the method and setting. For some assays here: Binding seen in cells or lysates may run through a third protein. Some binding calls cover weakened binding; strength is not graded here. Tags and fused reporters may be left off the sequences shown.
T1: HA-tagged human CRP2 (cysteine-and glycine-rich protein 2), in vitro translated (human) (UniProt Q16527)
T1 sequence: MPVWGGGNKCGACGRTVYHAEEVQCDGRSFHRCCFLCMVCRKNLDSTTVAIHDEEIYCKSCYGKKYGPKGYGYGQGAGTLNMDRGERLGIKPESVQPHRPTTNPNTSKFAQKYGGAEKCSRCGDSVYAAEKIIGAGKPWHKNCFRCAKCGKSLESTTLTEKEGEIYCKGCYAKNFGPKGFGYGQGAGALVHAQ

T2: Myc-tagged human SRF (serum response factor), in vitro translated (human) (UniProt P11831)
T2 sequence: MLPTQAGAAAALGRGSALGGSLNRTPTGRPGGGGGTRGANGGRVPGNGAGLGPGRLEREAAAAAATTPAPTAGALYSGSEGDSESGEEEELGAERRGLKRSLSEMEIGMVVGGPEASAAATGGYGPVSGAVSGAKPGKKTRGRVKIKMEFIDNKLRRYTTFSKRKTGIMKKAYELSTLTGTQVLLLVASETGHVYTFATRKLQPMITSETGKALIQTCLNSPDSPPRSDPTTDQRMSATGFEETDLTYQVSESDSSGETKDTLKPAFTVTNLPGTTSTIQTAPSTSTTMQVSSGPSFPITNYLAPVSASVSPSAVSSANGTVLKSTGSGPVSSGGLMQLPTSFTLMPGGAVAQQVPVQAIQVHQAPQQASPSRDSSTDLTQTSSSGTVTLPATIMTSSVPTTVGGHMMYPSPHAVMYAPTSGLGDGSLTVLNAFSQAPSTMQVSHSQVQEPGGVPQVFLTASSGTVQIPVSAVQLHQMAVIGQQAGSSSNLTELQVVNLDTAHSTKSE

B1: Myc-tagged human SRF (serum response factor), in vitro translated (protein, UniProt P11831 1-508)
chain: T2 sequence
B2: HA-tagged human CRP2 (cysteine-and glycine-rich protein 2), in vitro translated (protein, UniProt Q16527 1-193)
chain: T1 sequence

What was measured:
[1] = target: T1, HA-tagged human CRP2 (cysteine-and glycine-rich protein 2), in vitro translated (human); assay: co-IP; in vitro protein binding assay: mixtures (500 ul) of in vitro translated tagged proteins (wheat germ extract) immunoprecipitated with anti-HA affinity matrix or anti-Flag M2 gel (control gel beside), immunoblot; relative binding affinity normalised to the control = 100%
[2] = target: T2, Myc-tagged human SRF (serum response factor), in vitro translated (human); assay: DNA affinity binding assay; biotinylated 3xCArG probe on Streptavidin M-280 Dynabeads incubated with in vitro translated proteins at 4°C for 3 hours with rotation; probe-bound proteins detected by immunoblot; control Dynabeads and free 3xCArG as controls

Binder | binding [1] | binding [2]
B1 | binds | –
B2 | – | binds

Source: publication PMC10721955
